Experimental data: patent US6714815B2, “Method for the iontophoretic non-invasive determination of the in vivo concentration level of an inorganic or organic substance” (The Regents of the University of California, priority 1988, dated 2004)

Description: Drugs—Clonidine HCl (Sigma Chemical Co., St. Louis, Mo.); Clonidine-HCl (phenyl-4-^3H) of specific activity 90 mCi/mg (Amersham, Arlington Heights, Ill.). […] The non-labelled drugs were dissolved in deionized water to form solutions of 1 mg/ml, with enough labelled drug to achieve an activity of approximately […].
Skin (13)—Full-thickness skin, freshly excised from 11-15 week old female hairless mice (strain Skh:HR-1, Simonsen Laboratory, Gilroy, Calif.).
Testing of the Modeling Cell—The diffusion cell 10 was tested in three ways:
(1) Leakage tests (without current) using dye and silicone rubber than skin; (2) leakage tests using dye and skin (without current); and (3) iontophoretic tests using the drug solutions and skin (with and without current). Procedures (1) and (2) were evaluated by visually inspecting the cell. For procedure (3), 0.6 ml of labelled drug solution was placed in chamber 16A, 0.6 ml of buffered saline was pipetted into chamber 16C, and a constant current of 0.63 mA/cm^2 (with the voltage limited at 9 V) was imposed between the electrodes in the two chambers. The activity of the solutions in chambers 16A and 16C was determined before and after iontophoresis. The activity of the skin 13 and of the samples taken from the receptor chamber was determined post-experimentally. Each experiment lasts approximately 24 hours, ±2 hours, with samples collected hourly. Receptor fluid 17 was magnetically stirred (27), and the collection flow rate was 10 ml/hr. Each procedure was, repeated three times.

## CN1CC[C@]23c4c5ccc(O)c4O[C@H]2[C@@H](O)C=C[C@H]3[C@H]1C5.O=S(=O)(O)O [morphine sulfate, Morphine sulfate]
Current applied (0.63 mA/cm^2), approximately 20 hours
  labelled drug detected in the buffered saline of chamber 16C: 1 µg
Current of 0.63 mA/cm^2, drug 1 mg/ml in chamber 16A
  rate of penetration through the skin: 2.0 μg/cm^2/hr
No current applied, after 20 hours
  drug in the buffered saline of chamber 16C: no drug was found
No current applied, drug 1 mg/ml in chamber 16A
  mean rate of diffusion into the receptor phase (passive transport rate): 0.04 μg/cm^2/hr
